# Primary screen of a compound library

Each number is a percent effect as filed. The controls that fix the scale are not given in the record; negative values are as filed. This is an unselected part of the compounds tested. A dash means the value is not listed here; it may have been measured.

A: 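Assay on Mycobacterium tuberculosis, filed only as a heat shock assay from Cornell; the read-out is not stated. The concentration is filed as 10 mM, unlikely as a test dose, so the dose is not known. The record gives no direction; compounds that gave an IC50 in retests scored well above the rest, so higher reads as stronger inhibition. Of about 69,000 compounds tested this way, about 930 (1.4%) reached 50% or more in at least one test.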
B: 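Whole-cell assay for inhibitors of Mycobacterium tuberculosis growth, labelled Cornell in the record; the read-out is not stated. The concentration is filed as 10 mM, unlikely as a test dose, so the dose is not known. The record gives no direction; compounds strong in two other growth screens of this library score well above the rest, so higher reads as stronger inhibition. Of about 53,000 compounds tested this way, about 900 (1.7%) reached 50% or more in at least one test.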

compound,A,B
Fc1cccc(-c2nc(CN3CCCCC3Cn3cncn3)co2)c1 (centres unmarked),0.3164,35.25
CC(CNCc1ccc(F)cc1)Oc1ccccn1.Cl (centres unmarked),4.534,-2.296
COc1cc(I)c(Cl)cc1C(=O)N(C)CC(C)(C)O,-20.81,0.1763
c1ccc(-c2cc(CN3CCc4cncnc4C3)on2)cc1,-19.22,1.986
CN(C)S(=O)(=O)N1CC[C@]2(C[C@H](OCc3ccccn3)CO2)C1.O=C(O)C(F)(F)F,-2.014,-30.94
CNC(=O)c1cc2c(nc1NCC(C)C)CCN(c1ncccn1)CC2.O=C(O)C(F)(F)F,3.702,14.74
Cn1cc(NS(=O)(=O)CC2CCCCO2)cn1 (centres unmarked),-21.92,-
OCCNc1cc(-c2ccccc2)ncn1,-1.273,-14.84
CC1(C)COCCN1C(=O)CCc1nc(-c2ccc(Cl)cc2)no1,-18.56,-20.85
Cc1[nH]nc(CCC(=O)N2CCOC(CCc3ccccc3)C2)c1C (centres unmarked),-22.12,19.93
Cn1ncc(C(=O)OCC2CCN(c3ccccc3)C2)c1C(F)F (centres unmarked),-7.278,17.81
CC(C)c1nc2oc(C(=O)N3CCOCC3)c(N)c2c2c1CCCC2,2.167,5.641
CCCN1CCCCC1C(=O)Nc1ccc(-c2nnc[nH]2)cc1 (centres unmarked),-0.6592,-
CCN(CC)CCSc1ncnc2[nH]ncc12,-9.939,-
CS(=O)(=O)c1ccc(C(=O)NCc2nc3cc(F)ccc3[nH]2)cc1,6.872,7.357
COc1c(F)cc(CN2CCC3(CC2)C(C(=O)O)CC(=O)N3C)cc1Cl (centres unmarked),-21.71,7.248
CN1C[C@@H](F)[C@@H](OCc2nc3ccccc3[nH]2)C1,-22.08,-6.831
[H][C@]12CC[C@]([H])(CN(Cc3cccc(C)n3)C1)N(Cc1c(C)noc1C)C2=O,8.089,-15.42
COC(=O)C1CCN(C(=O)c2ccc(N(C)S(C)(=O)=O)c(C)c2)CC1,0.6607,-22.29
[H][C@@]12CN(Cc3cccnc3)C[C@]1([H])CN(C(=O)Cc1cccc(F)c1)C2,-1.55,19.7
CN(C)c1nc(N2CCCC2)nc2c1CCN(C(=O)c1ccco1)CC2.O=C(O)C(F)(F)F.O=C(O)C(F)(F)F,3.151,-31.1
Cn1cnc(-c2nc(C(=O)NCCN3CCOCC3)c3ccccn23)c1,8.612,-2.594
[H][C@]12CC=C(CN3CCCn4nc(CCC(=O)O)cc4C3)[C@]([H])(C1)C2(C)C,4.45,-8.899
Oc1nc(N2CCCC2)nc2c1CCN(Cc1ccsc1)CC2,-11.88,2.378
Cc1ccc2nc(-c3cnc(N)nc3)c(C)c(C(=O)N(C)C)c2c1,4.16,-7.055
CN(C)Cc1nc2c(o1)CN(C(=O)c1ccncc1F)C2,7.476,-6.575
Cc1nnc(NCc2ccc(SC(F)F)cc2)o1,17.41,46.33
CN(CC1(CO)CCC1)c1nc2c(c(=O)[nH]1)Cc1ccccc1OC2,3.707,5.365
O=C(O)C(F)(F)F.O=C(O)C(F)(F)F.O=C1NC2(CCN(Cc3nccs3)CC2)CC1c1ccncc1 (centres unmarked),-1.687,-1.432
O=C(O)C(F)(F)F.O=C(c1ccncc1)N1CCOC2(COCCN(c3cncnc3)C2)C1 (centres unmarked),-9.047,10.68
COc1ccc(C(N)=O)cc1NCc1ncc(C(C)(C)C)o1,-25.07,-11.78
CCCNC(=O)C(C)Oc1ccccc1 (centres unmarked),8.624,11.76
Cc1nnc2n1CCN(Cc1c(Cl)ccc3cccnc13)C2,-24.43,-15.75
Cc1cc(=O)c(C(=O)N2CCCCC2c2ccc(F)cc2)c[nH]1 (centres unmarked),-9.124,-5.242
CC(C)(C)c1cc(C[C@H]2CNCC[C@H]2CC(=O)NCc2cccs2)no1,-6.853,12.61
CCN(C)C1COC2(CCN(C(=O)c3ccc(Cl)cc3)CC2)C1.O=C(O)C(F)(F)F (centres unmarked),-11.17,-
CC(C)(C)c1nccc(N2CCC(OCCN3CCCCC3)C2)n1 (centres unmarked),-33.35,17.86
CCc1nccn1C1CCCN(C(=O)C2=NN(C)C(=O)CC2)C1 (centres unmarked),-2.056,-
c1ccc(OCCCN2CCN(c3ccc4nncn4n3)CC2)cc1,9.132,22.27
Cc1n[nH]c(C)c1C1COCCN1C(=O)c1ccc2c(c1)CCO2 (centres unmarked),17.61,-
c1cc(CN(CCCn2ccnc2)Cc2ccoc2)ccn1,0.7312,1.592
CCCN1CCCn2nc(CNC(=O)CCOC)cc2C1,-4.328,-3.169
Cn1ccc(C(=O)N2CCCC(CNS(C)(=O)=O)C2)cc1=O (centres unmarked),6.186,-
CN(C)CCOCC1CN(C(=O)c2ccnnc2)Cc2ccnn2C1.O=C(O)C(F)(F)F.O=C(O)C(F)(F)F (centres unmarked),-27.02,3.488
CCn1nccc1CNC(=O)C1CCCC1,-7.396,7.922
Cc1ccc(OCc2nnc(SCC3CCCN(C)C3)o2)cc1 (centres unmarked),-34.49,5.749
[H][C@@]12CS(=O)(=O)C[C@]1([H])N(C(=O)Cc1ccc(O)c(Cl)c1)CCN2CC1CC1,0.1181,7.153
N#CCCN(C(=O)COC1CCCC1)C1CC1,-15.01,2.172
CCSC(C)c1nc(-c2ccc(C)nn2)no1 (centres unmarked),20.27,-2.116
CC(C)n1cc(N2CC(C(=O)N3CCC(C(N)=O)CC3)CC2=O)cn1 (centres unmarked),11.96,11.92
FC(F)(F)C1CCc2nnc(CNCc3ccsc3)n2C1 (centres unmarked),0.896,2.321
O=C(C1CC1)N(CCc1ccccc1)C1CCOC1 (centres unmarked),-9.561,29.22
CCCc1ccc(OCCNCc2ccco2)c(OC)c1.Cl,22.71,14.42
Cc1ccnn1CCNC(=O)c1cnc(N(C)C)nc1,-16.35,4.021
O=C(Nc1ccc2scnc2c1)N1CCN([C@H]2CCCC[C@@H]2O)CC1,-15.78,-0.4534
CC1CN(C)c2ccccc2CN1C(=O)c1cnsn1 (centres unmarked),-24.41,14.42
O=C(NC1CCCC1)NC1CCC(C(=O)N2CCSCC2)CC1 (centres unmarked),-27.1,-7.43
CCc1ccc(C2CC(=O)Nc3n[nH]cc32)o1 (centres unmarked),15.05,-
Cc1cc(C(C)NC(=O)CCn2nnc3ccccc3c2=O)c(C)o1 (centres unmarked),13.31,-2.902
COc1c(C)cnc(CN2CCn3c(nnc3C3CC3)C2)c1C,-1.056,-
CC(=O)N1CCN(c2ccnc(C)n2)CC(COc2ccccc2)C1 (centres unmarked),-7.042,-35.77
CC(C)N(C(=O)CCc1cccc(F)c1)C1CCOCC1,-1.286,15.1
Cc1ccsc1CNCCCOc1ccccn1,-15.42,2.616
Cc1nc(C2CCCN2C(=O)c2ccc3c(c2)nc(C)n3C)no1 (centres unmarked),-1.778,-12.75
CCc1ccccc1NC(=O)c1cccc(N(C)S(C)(=O)=O)c1C,6.121,8.899

Once more, the final 5:

- CC(=O)N1CCN(c2ccnc(C)n2)CC(COc2ccccc2)C1 (centres unmarked) | A: -7.042%; B: -35.77%
- CC(C)N(C(=O)CCc1cccc(F)c1)C1CCOCC1 | A: -1.286%; B: 15.1%
- Cc1ccsc1CNCCCOc1ccccn1 | A: -15.42%; B: 2.616%
- Cc1nc(C2CCCN2C(=O)c2ccc3c(c2)nc(C)n3C)no1 (centres unmarked) | A: -1.778%; B: -12.75%
- CCc1ccccc1NC(=O)c1cccc(N(C)S(C)(=O)=O)c1C | A: 6.121%; B: 8.899%

Measurements from “University of Dundee, Small-Polar-MMV Screening Library” (2021), ChEMBL document CHEMBL3988442.